In PubChem BioAssay (Tox21):
Several values for one entry are separate records, joined by “and”; a condition that tells them apart may be missing. Equal entries are not always repeated. This list was built around the results that the source calls inconclusive (neither active nor inactive); the mix of calls is not that of the screen. A potency beside an inconclusive call is a rough fit, not a confirmed value. Where a structure was tested more than once in an assay, its records may differ in their call. Activity calls are given as the source filed them. Calls follow the shape of the dose curve; as a rule, active = well fitted curve in the direction sought with a large enough effect in the repeat runs; inconclusive = weak or mixed curves; inactive = no such curve, though single readings can be large; an effect the other way counts as inactive or inconclusive.

The chains behind the UniProt entries cited, without tags or fusion partners. Where a name states a change or a piece, a line headed by the entry shows the natural chain unless it says otherwise.
UniProt P11712, whole entry, looked up: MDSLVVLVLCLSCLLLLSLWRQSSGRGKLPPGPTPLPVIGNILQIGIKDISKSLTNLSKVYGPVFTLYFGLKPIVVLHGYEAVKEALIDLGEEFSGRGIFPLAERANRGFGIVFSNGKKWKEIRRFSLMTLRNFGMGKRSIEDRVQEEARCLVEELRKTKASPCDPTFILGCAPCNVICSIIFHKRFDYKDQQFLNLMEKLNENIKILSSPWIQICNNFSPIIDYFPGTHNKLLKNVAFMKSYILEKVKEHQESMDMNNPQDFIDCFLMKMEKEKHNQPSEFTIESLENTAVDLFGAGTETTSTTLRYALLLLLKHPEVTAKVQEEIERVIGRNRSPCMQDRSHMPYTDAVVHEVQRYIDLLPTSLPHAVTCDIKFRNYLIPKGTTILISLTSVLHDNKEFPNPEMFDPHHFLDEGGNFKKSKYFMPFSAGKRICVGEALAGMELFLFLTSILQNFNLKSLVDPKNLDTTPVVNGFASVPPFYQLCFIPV
UniProt P05177, whole entry, looked up: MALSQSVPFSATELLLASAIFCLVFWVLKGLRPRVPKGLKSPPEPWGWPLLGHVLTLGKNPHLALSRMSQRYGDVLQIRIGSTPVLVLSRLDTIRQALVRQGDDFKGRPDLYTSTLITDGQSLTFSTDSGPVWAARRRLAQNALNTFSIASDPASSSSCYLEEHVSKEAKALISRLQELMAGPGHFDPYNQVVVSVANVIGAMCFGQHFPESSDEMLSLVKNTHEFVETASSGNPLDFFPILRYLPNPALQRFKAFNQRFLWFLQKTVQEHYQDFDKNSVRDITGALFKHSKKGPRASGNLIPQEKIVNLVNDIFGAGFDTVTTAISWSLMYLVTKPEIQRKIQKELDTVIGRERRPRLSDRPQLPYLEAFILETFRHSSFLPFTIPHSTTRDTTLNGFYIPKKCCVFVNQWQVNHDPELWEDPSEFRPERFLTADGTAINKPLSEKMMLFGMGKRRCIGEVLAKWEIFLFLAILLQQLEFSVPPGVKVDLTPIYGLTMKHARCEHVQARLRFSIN
UniProt Q12809: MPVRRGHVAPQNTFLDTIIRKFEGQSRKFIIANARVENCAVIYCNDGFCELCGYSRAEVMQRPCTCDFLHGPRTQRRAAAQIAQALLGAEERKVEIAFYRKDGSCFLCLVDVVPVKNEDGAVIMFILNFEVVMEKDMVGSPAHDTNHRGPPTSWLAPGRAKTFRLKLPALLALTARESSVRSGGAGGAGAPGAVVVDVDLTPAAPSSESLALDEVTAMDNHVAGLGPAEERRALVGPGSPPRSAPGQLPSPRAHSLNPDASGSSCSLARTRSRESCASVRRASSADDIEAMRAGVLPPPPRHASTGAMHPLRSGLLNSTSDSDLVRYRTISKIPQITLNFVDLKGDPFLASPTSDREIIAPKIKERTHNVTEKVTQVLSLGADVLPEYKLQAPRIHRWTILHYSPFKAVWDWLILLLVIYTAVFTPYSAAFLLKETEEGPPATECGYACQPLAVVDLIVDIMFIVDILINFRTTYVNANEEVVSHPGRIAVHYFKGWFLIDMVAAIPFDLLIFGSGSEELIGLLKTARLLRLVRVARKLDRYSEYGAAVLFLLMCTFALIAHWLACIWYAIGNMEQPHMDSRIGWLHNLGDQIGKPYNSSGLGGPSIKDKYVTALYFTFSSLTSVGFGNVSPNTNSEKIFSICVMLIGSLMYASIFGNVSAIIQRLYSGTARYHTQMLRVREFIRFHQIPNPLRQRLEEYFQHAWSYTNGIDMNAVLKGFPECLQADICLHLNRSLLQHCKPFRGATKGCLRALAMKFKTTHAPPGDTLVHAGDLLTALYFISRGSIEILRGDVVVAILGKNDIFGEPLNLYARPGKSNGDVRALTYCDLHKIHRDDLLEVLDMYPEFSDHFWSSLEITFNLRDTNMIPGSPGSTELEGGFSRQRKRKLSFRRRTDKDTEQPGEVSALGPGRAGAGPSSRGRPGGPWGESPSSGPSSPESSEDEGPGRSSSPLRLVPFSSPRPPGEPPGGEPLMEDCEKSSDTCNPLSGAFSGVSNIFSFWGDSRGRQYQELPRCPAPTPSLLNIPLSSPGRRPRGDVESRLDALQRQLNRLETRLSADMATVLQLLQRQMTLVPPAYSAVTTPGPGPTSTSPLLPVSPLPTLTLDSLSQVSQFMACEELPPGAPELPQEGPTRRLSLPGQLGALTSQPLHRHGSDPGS
UniProt P08684, whole entry, looked up: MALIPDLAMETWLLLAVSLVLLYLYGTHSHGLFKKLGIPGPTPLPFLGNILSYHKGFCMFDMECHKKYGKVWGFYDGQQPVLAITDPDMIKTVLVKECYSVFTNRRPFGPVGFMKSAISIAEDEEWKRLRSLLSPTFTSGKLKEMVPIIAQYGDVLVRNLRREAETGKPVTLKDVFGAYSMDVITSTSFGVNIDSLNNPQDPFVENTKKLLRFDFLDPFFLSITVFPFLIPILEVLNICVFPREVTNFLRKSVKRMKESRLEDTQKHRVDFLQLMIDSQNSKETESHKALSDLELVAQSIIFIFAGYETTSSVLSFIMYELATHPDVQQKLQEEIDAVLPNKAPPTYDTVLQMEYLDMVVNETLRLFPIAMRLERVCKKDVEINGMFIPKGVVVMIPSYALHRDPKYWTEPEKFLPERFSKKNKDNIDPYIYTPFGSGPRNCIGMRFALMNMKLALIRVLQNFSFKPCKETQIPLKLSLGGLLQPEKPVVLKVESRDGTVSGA

Assays:
[1] = molecular target: Cytochrome P450 2C9 (Homo sapiens) (UniProt P11712); test: Cytochrome P450 Family 2 Subfamily C Member 9 (CYP2C9) small molecule antagonists: luciferase reporter qHTS assay (AID 1671198)
How it was run: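 Enzyme-substrate mix preincubated with compound 10 min at room temperature; reaction started with NADPH regeneration solution, 1 h 37C. Luminescent luciferin product read after 20 min detection reagent.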

[2] = molecular target: Cytochrome P450 1A2 (Homo sapiens) (UniProt P05177); test: Cytochrome P450 Family 1 Subfamily A Member 2 (CYP1A2) small molecule antagonists: luciferase reporter qHTS assay (AID 1671199)
How it was run: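 Enzymatic CYP1A2 assay, human, luminescent: 10 min compound–enzyme–substrate preincubation, 1 h NADPH-dependent turnover, 20 min detection step, room temperature throughout. Reduced light indicates lower CYP1A2 activity.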

[3] = molecular target: Voltage-gated inwardly rectifying potassium channel KCNH2 (Homo sapiens) (UniProt Q12809); test: Human Ether-a-go-go-Related Gene (hERG) channel small molecule antagonists: fluorescence cell-based qHTS assay (AID 1671200)
How it was run: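 hERG-U2OS cells plated overnight at 37 C, loaded with FluxOR II dye 1 h at RT in dark; after 10 min, thallium stimulus added. Fluorescence (480/540 nm) read kinetically for 2 min at 1 s intervals.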

[4] = molecular target: Cytochrome P450 3A4 (Homo sapiens) (UniProt P08684); test: Cytochrome P450 Family 3 Subfamily A Member 4 (CYP3A4) small molecule antagonists: luciferase reporter qHTS assay (AID 1671201)
How it was run: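 P450-Glo CYP3A4 luminescent assay: compounds preincubated 10 min at room temperature with enzyme and proluciferin substrate, NADPH regeneration added, 1 h room-temperature reaction, stopped with luciferin detection reagent; luminescence read after 20 min. Ketoconazole positive control.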
Also: nearly all actives have a fitted effect of over 50% in size.
Potency is read from the fitted curve at half-maximal effect.

Row | Compound | Potency [1] | Potency [2] | Potency [3] | Potency [4]
1 | CSc1ccc2c(c1)C(N1CCN(C)CC1)Cc1ccccc1S2 (stereo not given) | inconclusive: 38.9 µM [inhibitor, partial curve] | inactive |  | 
2 | CCCCC(CC)COC(=O)CC(C(=O)OCC(CC)CCCC)S(=O)(=O)O (stereo not given) | active: 15.3 µM and active: 12.6 µM | inconclusive: 86 µM [inhibitor, partial curve, poor fit] | inconclusive: 38.9 µM [inhibitor, partial curve, poor fit] | 
3 | O=C(c1ccc(O)cc1O)c1ccc(O)cc1O | inactive and inconclusive: 71 µM [inhibitor] | active: 12.6 µM and active: 11.2 µM | inactive | 
4 | Cc1cc(OCCOCC[N+](C)(C)Cc2ccccc2)ccc1C(C)(C)CC(C)(C)C | inconclusive: 43.6 µM [inhibitor, single point] | inconclusive: 39.7 µM [inhibitor, partial curve] | active: 688 nM and active: 756 nM | 
5 | O=C(O)c1ccc([N+](=O)[O-])cc1 | inactive and inconclusive: 89.4 µM [inhibitor, single point] | inconclusive: 100 µM [inhibitor, partial curve, poor fit] |  | inactive
6 | CC(=O)O[C@]1(C(C)=O)CC[C@H]2[C@@H]3C[C@H](C)C4=CC(=O)CC[C@]4(C)[C@H]3CC[C@@]21C | active: 3.99 µM and active: 13.8 µM | inconclusive: 63.2 µM [inhibitor, partial curve] |  | inconclusive: 2.52 µM [inhibitor, full curve] and inconclusive: 2.75 µM [inhibitor, full curve]
7 | COc1cc(Cc2cnc(N)nc2N)cc(OC)c1OC | inconclusive: 50.1 µM [inhibitor, partial curve, poor fit] | active: 35.5 µM and inactive |  | 
8 | Cc1c(N(C)C)c(=O)n(-c2ccccc2)n1C | inconclusive: 72.2 µM [inhibitor, partial curve, poor fit] and inactive | inconclusive: 35.6 µM [inhibitor, partial curve] and inconclusive: 34.7 µM [inhibitor, partial curve, poor fit] |  | 
9 | CCCCCCCC/C=C\CCCCCCCCOCCO | active: 29.2 µM |  | inconclusive: 56.8 µM [inhibitor, partial curve] | 
10 | Cc1cc(O)c(C(C)(C)C)cc1C(C)(C)C | active: 28.3 µM |  | inconclusive: 43.6 µM [inhibitor, partial curve, poor fit] | 
11 | CN(C)CCN(Cc1cccs1)c1ccccn1 | inactive | inconclusive: 39.7 µM [inhibitor, partial curve] |  | 
12 | COCCCN | inconclusive: 49.6 µM [inhibitor, partial curve, poor fit] | inactive |  | 
13 | CC(C)(C)c1cccc(C(C)(C)C)c1O | inconclusive: 61.9 µM [inhibitor, partial curve] and inconclusive: 79.6 µM [inhibitor, partial curve] |  | inconclusive: 21.9 µM [inhibitor, partial curve] | 
14 | Cc1ccc(N)c(S(=O)(=O)O)c1 | inconclusive: 39.9 µM [inhibitor, partial curve] | inconclusive: 64.1 µM [inhibitor, partial curve] and inconclusive: 79.6 µM [inhibitor, partial curve, poor fit] |  | 
15 | C[C@H]1O[C@@H](O[C@H]2CC[C@@]3(C)[C@H](CC[C@@H]4[C@@H]3C[C@@H](O)[C@]3(C)[C@@H](C5=CC(=O)OC5)CC[C@]43O)C2)C[C@H](O)[C@@H]1O[C@H]1C[C@H](O)[C@H](O[C@H]2C[C@H](O)[C@H](O[C@@H]3O[C@H](CO)[C@@H](O)[C@H](O)[C@H]3O)[C@@H](C)O2)[C@@H](C)O1 | inactive | inconclusive: 27.5 µM [inhibitor, partial curve] |  | 
16 | Nc1cc(Cl)c(-c2cc(Cl)c(N)cc2Cl)cc1Cl | inconclusive: 89.4 µM [inhibitor, single point] | active: 11.2 µM and active: 12.6 µM | inconclusive: 43.6 µM [inhibitor, partial curve] | 
17 | O=C(OCC1CCC2OC2C1)C1CCC2OC2C1 (stereo not given) | inconclusive: 118 µM [inhibitor] | inconclusive: 83.4 µM [inhibitor, partial curve, poor fit] and inconclusive: 79.6 µM [inhibitor, partial curve] |  | inconclusive: 46.9 µM [inhibitor, partial curve] and inconclusive: 71 µM [inhibitor, partial curve]
18 | N=C1N=C(N)c2cc3ccccc3cc21 | inconclusive: 71 µM [inhibitor] |  | inconclusive: 38.9 µM [inhibitor, partial curve] | 
19 | O=c1n(CC2CO2)c(=O)n(CC2CO2)c(=O)n1CC1CO1 (stereo not given) | inconclusive: 79.2 µM [inhibitor, partial curve, poor fit] and inconclusive: 89.4 µM [inhibitor, single point] | inconclusive: 79.2 µM [inhibitor] and inconclusive: 71 µM [inhibitor, partial curve] |  | 
20 | O=c1n(CCO)c(=O)n(CCO)c(=O)n1CCO | inactive | inconclusive: 63.3 µM [inhibitor, partial curve] |  | 

Row | Compound | Potency [1] | Potency [2] | Potency [3] | Potency [4]
21 | C[C@]12CC[C@@H]3c4ccc(O)cc4CC[C@H]3[C@@H]1CC[C@@H]2OC(=O)CCC1CCCC1 | active: 17.8 µM and active: 17.4 µM | inconclusive: 21.9 µM [inhibitor, partial curve] | inconclusive: 49 µM [inhibitor, partial curve, poor fit] | 
22 | Oc1c(Cl)cc(Cl)c(Cl)c1Cc1c(O)c(Cl)cc(Cl)c1Cl | active: 2 µM and active: 3.56 µM and active: 1.74 µM | inconclusive: 70.8 µM [inhibitor, single point] and inconclusive: 71 µM [inhibitor, partial curve, poor fit] and inactive |  | 
23 | CC=O | inactive | active: 37.2 µM | active: 4.57 µM | inactive
24 | CCCCCCC(C)OC(=O)COc1nc(F)c(Cl)c(N)c1Cl (stereo not given) |  | active: 5.64 µM | active: 38.9 µM | 
25 | CC/C(=C(/c1ccc(O)cc1)c1ccc(OCCN(C)C)cc1)c1ccccc1 |  | inconclusive: 41.7 µM [inhibitor] |  | inconclusive: 20.9 µM [inhibitor, partial curve]
26 | C=C1C(CCl)(CCl)C2(Cl)C(Cl)C(Cl)C1(Cl)C2(Cl)Cl (stereo not given) |  | inconclusive: 70.2 µM [inhibitor, partial curve, poor fit] |  | active: 0.991 µM
27 | CCC(C)Nc1ccc(NC(C)CC)cc1 (stereo not given) |  | active: 40.7 µM | active: 7.91 µM | 
28 | Cc1ccc(O)c2ncccc12 |  |  | inconclusive: 21.3 µM [inhibitor, partial curve] | 
29 | CN(C)c1cccc(O)c1 |  | active: 32.2 µM and active: 31.7 µM |  | inconclusive: 25.6 µM [inhibitor, full curve] and inconclusive: 35.6 µM [inhibitor, partial curve]
30 | Oc1ccc(C2(c3ccc(O)cc3)CC3CC2C2CCCC32)cc1 (stereo not given) |  | inconclusive: 34.2 µM [inhibitor, partial curve] |  | active: 38.4 µM
31 | O=C1c2ccccc2C(=O)N1SC1CCCCC1 |  | active: 35.5 µM and active: 35.6 µM | inconclusive: 54.9 µM [inhibitor, single point] | 
32 | CCCCCCCCCCCCN |  | active: 16 µM and active: 2.83 µM and active: 9.08 µM |  | inconclusive: 35.6 µM [inhibitor, partial curve]
33 | CC(C)(c1ccccc1)c1ccccc1 |  | inconclusive: 58.8 µM [inhibitor] | inconclusive: 40.6 µM [inhibitor, partial curve] | 
34 | O=C(Nc1ccccc1)c1cc(Cl)ccc1O |  | active: 12.6 µM |  | inconclusive: 35.6 µM [inhibitor, partial curve]
35 | OCCN1CCN(CC/C=C2/c3ccccc3Sc3ccc(C(F)(F)F)cc32)CC1 |  |  | active: 2.13 µM | 
36 | S=C(SSSSSSC(=S)N1CCCCC1)N1CCCCC1 |  | inconclusive: 17.5 µM [inhibitor, single point] |  | inconclusive: 17.5 µM [inhibitor, partial curve, poor fit]
37 | CCOC(=O)O[C@H](C)OC(=O)c1ccc2c(c1)cc(C(=O)NC1CCN(C(C)C)CC1)n2Cc1cc(-c2ccc(Cl)s2)on1 |  | inconclusive: 74.4 µM [inhibitor, single point] | inconclusive: 4.58 µM [inhibitor, full curve] | 
38 | Clc1ccc(C(Cn2ccnc2)OCc2c(Cl)cccc2Cl)c(Cl)c1 (stereo not given) |  |  | active: 7.56 µM | 
39 | CCCCCCOC(=O)c1ccc(O)cc1 |  |  | inconclusive: 49 µM [inhibitor, single point] and inconclusive: 54.9 µM [inhibitor, partial curve, poor fit] | 
40 | Clc1ccc2c(c1)C(N1CCNCC1)=Nc1ccccc1O2 |  | inconclusive: 20 µM [inhibitor, full curve] and inconclusive: 17.4 µM [inhibitor, partial curve] |  | 

Filtered by structure: the entries above with fluorine.
Row | Compound | Potency [1] | Potency [2] | Potency [3] | Potency [4]
24 | CCCCCCC(C)OC(=O)COc1nc(F)c(Cl)c(N)c1Cl (stereo not given) |  | active: 5.64 µM | active: 38.9 µM | 
35 | OCCN1CCN(CC/C=C2/c3ccccc3Sc3ccc(C(F)(F)F)cc32)CC1 |  |  | active: 2.13 µM | 
